Results are given in words; binding and its absence hold for the method and conditions named. Binding seen in cells or lysates may run through a third protein. Some results given as binding are weak or reduced against the parent protein; the word gives no strength.
Target: TNF-α converting enzyme (TACE) (human (endogenous in A549)) (UniProt P78536)
Experiment: FRET or BRET; acceptor photobleaching FRET microscopy on formaldehyde-fixed transfected A549 cells; donor FITC-conjugated anti-TNF-α (Mab11), acceptor anti-TACE (M222) with Cy3-conjugated Fab; cells untreated or treated with 50 mM methanol, ethanol or 1-propanol for 60 minutes, or alcohol followed by a 1 hour washout

Protein sequences, listed by entry. Tags and fused reporters are not part of them. Residues count along the entry.
UniProt P78536, residues 215-824: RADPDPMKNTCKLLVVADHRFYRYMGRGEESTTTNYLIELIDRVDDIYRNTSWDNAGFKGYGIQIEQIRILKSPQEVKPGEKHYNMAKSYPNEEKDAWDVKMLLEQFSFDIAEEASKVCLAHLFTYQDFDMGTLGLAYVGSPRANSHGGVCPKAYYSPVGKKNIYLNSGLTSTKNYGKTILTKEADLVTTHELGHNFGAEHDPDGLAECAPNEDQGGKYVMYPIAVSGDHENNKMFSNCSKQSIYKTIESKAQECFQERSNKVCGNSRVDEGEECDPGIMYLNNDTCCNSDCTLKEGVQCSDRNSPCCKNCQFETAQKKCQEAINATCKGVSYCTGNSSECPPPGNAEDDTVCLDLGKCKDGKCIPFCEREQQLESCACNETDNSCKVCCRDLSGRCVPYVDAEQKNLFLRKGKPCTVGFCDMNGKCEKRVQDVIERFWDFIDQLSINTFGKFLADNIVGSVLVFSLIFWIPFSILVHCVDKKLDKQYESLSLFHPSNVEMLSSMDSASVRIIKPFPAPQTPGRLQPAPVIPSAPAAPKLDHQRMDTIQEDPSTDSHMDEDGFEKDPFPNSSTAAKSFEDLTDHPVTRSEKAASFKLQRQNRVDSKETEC
UniProt P01375: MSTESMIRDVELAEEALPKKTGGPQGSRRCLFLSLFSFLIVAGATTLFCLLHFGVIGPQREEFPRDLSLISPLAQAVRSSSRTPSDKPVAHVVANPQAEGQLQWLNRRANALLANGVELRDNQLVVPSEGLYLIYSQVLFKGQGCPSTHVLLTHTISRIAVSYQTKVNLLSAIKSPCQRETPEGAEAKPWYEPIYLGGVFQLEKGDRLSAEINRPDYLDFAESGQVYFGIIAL

binding: binds
Substance: FLAG-tagged human TNF-α (from UniProt P01375 1-233)
